In patent publication US12613234B2, “Structural-profiling of analytes by nanopore trapping” (NANJING UNIVERSITY, priority 2021, dated 2026):
Where “and” joins values, the source holds several entries; their conditions need not be identical. Equal values may be shown once. Read-outs that look alike come from different tables or passages of the source.

Legend:
M2 MspA [1] = tested on: M2 MspA; set-up: species or system Mycobacterium smegmatis; settings: for amplitude S.D., mean: […] KCl/1.0M CaCl2, +100 mV; for amplitude S.D., mean / current blockade ratio (ΔI/I0), mean / current blockade ratio (ΔI/I0), Step 1, mean / current blockade ratio (ΔI/I0), Step 2, mean: N=3; for current blockade ratio (ΔI/I0), mean: […] KCl/1.0M CaCl2, pH 7.0, +100 mV
M2 MspA [2] = settings: 10-fold cross-validation
[3] = FIG. 80j: lysozyme + holo-myoglobin + ACTR/NCBD complex + apo-myoglobin
[4] = +100 mV, listed as APO-MYOGLOBIN
[5] = +100 mV, independent measurements 1-3

Molecule | nanopore events as the sole analyte (M2 MspA [1]; 0.2 μM in cis, +100 mV) | factor of improvement of trapping efficiency (τon reduction), asymmetric vs symmetric electrolyte (M2 MspA [1]; +100 mV) | mean ΔI/I0 (M2 MspA [1]; FIG. 80f: lysozyme + holo-myoglobin) | mean ΔI/I0 (M2 MspA [1]; [3]) | mean ΔI/I0 (M2 MspA [1]; FIG. 80h: lysozyme + holo-myoglobin + ACTR/NCBD complex) | mean ΔI/I0 (M2 MspA [1]; FIG. 80d: lysozyme only) | amplitude S.D., mean (M2 MspA [1]) | current blockade ratio (ΔI/I0), mean (M2 MspA [1]) | current blockade ratio (ΔI/I0), mean (M2 MspA [1]; listed as LYSOZYME) | mean ΔI/I0 (M2 MspA [1]; simultaneous sensing of lysozyme, myoglobin and ATCR/NCBD complex (FIG. 75), +100 mV) | true positive rate (TPR), bagged trees model (M2 MspA [2]) | current blockade ratio (ΔI/I0), Step 1, mean (M2 MspA [1]; +100 mV) | current blockade ratio (ΔI/I0), Step 2, mean (M2 MspA [1]; +100 mV) | current blockade ratio (ΔI/I0), Step 1, mean (M2 MspA [1]; [4]) | current blockade ratio (ΔI/I0), Step 2, mean (M2 MspA [1]; [4]) | current blockade ratio (ΔI/I0), Step 1 (M2 MspA [1]; [5]) | current blockade ratio (ΔI/I0), Step 2 (M2 MspA [1]; [5]) | amplitude S.D., mean (M2 MspA [1]; listed as APO-MYOGLOBIN) | ΔI/I0 (M2 MspA [1]; simultaneous sensing of apo-myoglobin ([…]) and holo-myoglobin (0.35 μM), FIG. 89) | mean Amplitude S.D. (M2 MspA [1]; simultaneous sensing of myoglobin and apo-myoglobin (FIG. 73), +100 mV)
C=CC1=C(C)c2cc3[n-]c(cc4[n-]c(cc5nc(cc1n2)C(C)=C5C=C)c(C)c4CCC(=O)O)c(CCC(=O)O)c3C.[Fe+2] [Heme, reference compound] | No nanopore events were observed | – | – | – | – | – | – | – | – | – | – | – | – | – | – | – | – | – | – | –
lysozyme: lysozyme from chicken egg white, representative basic protein | – | 12 | 34.5% | 33.9% | 34.5% | 34.2% | 6.8 ± 0.3 PA | 34.4±0.15% | 34.4 ± 0.15% | 32.9% | 100% | – | – | – | – | – | – | – | – | –
apo-myoglobin: heme-free myoglobin from equine skeletal muscle (protein, UniProt P68082 2-154, looked up, heme-free apo form, heme-free myoglobin from equine skeletal muscle) Myoglobin: GLSDGEWQQVLNVWGKVEADIAGHGQEVLIRLFTGHPETLEKFDKFKHLKTEAEMKASEDLKKHGTVVLTALGGILKKKGHHEAELKPLAQSHATKHKIPIKYLEFISDAIIHVLHSKHPGDFGADAQGAMTKALELFRNDIAAKYKELGFQG | – | – | – | 51.5% | – | – | 13.6±0.2 PA | – | – | – | 99.9% | 51.3±0.2% | 89.1±0.3% | 51.3 ± 0.2% | 89.1 ± 0.3% | 51.5% and 51.3% and 51.1% | 89.4% and 88.8% and 89.1% | 13.6 ± 0.2 PA | 50.9% | 13.5 pA
